Laboratory results reported in the supplement of paper PMC4604168 (melanoma cell lines).
This is one part of the list. Single values are uncertain, as repeats are few or missing.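 The apoptosis fraction was the count of cleaved-PARP antibody-stained nuclei relative to all DNA-stained nuclei, imaged in 1,536-well plates. Screening doses were set so most cells survived, and baseline and induced cleaved-PARP levels vary greatly across cell lines.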

Tests used:
Test in all cases: cleaved PARP positive nuclei fraction relative to DMSO control; melanoma cells; higher = more apoptosis
Conditions in all cases: library dose: low library concentration; 72 h
[1] = test system: MZ2-MEL
[2] = test system: MeWo
[3] = test system: RPMI7951
[4] = test system: RVH-421
[5] = test system: SkMel28
[6] = test system: SkMel30
[7] = test system: SkMel5
[8] = test system: UACC257
[9] = test system: UACC62

| Compound | cleaved PARP positive nuclei fraction [1] [%] | cleaved PARP positive nuclei fraction [2] [%] | cleaved PARP positive nuclei fraction [3] [%] | cleaved PARP positive nuclei fraction [4] [%] | cleaved PARP positive nuclei fraction [5] [%] | cleaved PARP positive nuclei fraction [6] [%] | cleaved PARP positive nuclei fraction [7] [%] | cleaved PARP positive nuclei fraction [8] [%] | cleaved PARP positive nuclei fraction [9] [%] |
| --- | --- | --- | --- | --- | --- | --- | --- | --- | --- |
| CN(C)S(=O)(=O)c1ccc2c(c1)/C(=C/c1cc3c([nH]1)CCCC3)C(=O)N2 + COc1ccc(-c2ccc3c(N4CCOCC4)nc(N4C[C@@H](C)O[C@@H](C)C4)nc3n2)cc1CO [KU0063794] (first compound 0.4 µM, partner dose 0.02 µM) | 198 | 83.4 | 84.8 | 23.2 | 168 | 35.4 | 86.9 | 214 | 188 |
| NCC(=O)Nc1ccc(-n2nc(C(F)(F)F)cc2-c2ccc3c(ccc4ccccc43)c2)cc1 + O=S(=O)(c1ccccc1)N(CC(F)(F)F)c1ccc(C(O)(C(F)(F)F)C(F)(F)F)cc1 [T0901317] (first compound 1 µM, partner dose 1.4 µM) | 151 | 374 | 77.7 | 12.8 | 174 | 16.2 | 78.3 | 134 | 151 |
| O=C1NC(=O)/C(=C/c2ccc(-c3ccc(F)cc3O)o2)S1 + Cn1cc(/C=C2\C(=O)Nc3cccnc32)c2ccccc21 [GW441756] (first compound 1 µM, partner dose 0.4 µM) | 45.4 | 98.9 | 37.7 | 68.6 | 116 | 106 | 64.2 | 133 | 38.1 |
| COc1ccc(COc2ccc(Cc3cnc(N)nc3N)cc2OC)cc1 + O=C(O)C(=O)Nc1sc2c(c1C(=O)O)CCNC2 [TCS401] (first compound 1 µM, partner dose 1.66667 µM) | 82.5 | 75.2 | 93.9 | 151 | 122 | 41.3 | 87.6 | 75.2 | 47.4 |
| COc1cc2ncnc(Nc3ccc(Oc4ccccc4)cc3)c2cc1OC + O=c1cc(-c2cccc3c2Sc2ccccc2S3)oc(N2CCOCC2)c1 [KU55933] (first compound 2 µM, partner dose 1 µM) | 127 | 111 | 38.8 | 64.1 | 137 | 35.3 | 110 | 193 | 32.8 |
| NCC(=O)Nc1ccc(-n2nc(C(F)(F)F)cc2-c2ccc3c(ccc4ccccc43)c2)cc1 + Oc1cc(-c2nc(-c3ccccc3)[nH]c2-c2ccncc2)ccc1Cl [L779450] (first compound 1 µM, partner dose 0.2 µM) | 245 | 188 | 89.9 | 24.3 | 62.5 | 78.1 | 60.7 | 151 | 319 |
| CCc1ccc(CCOc2ccc(CC3SC(=O)NC3=O)cc2)nc1 (configuration not stated) [pioglitazone] + O=S(=O)(c1ccccc1)N(CC(F)(F)F)c1ccc(C(O)(C(F)(F)F)C(F)(F)F)cc1 [T0901317] (first compound 2 µM, partner dose 1.4 µM) | 118 | 53.5 | 43.4 | 27.8 | 255 | 57.4 | 38.2 | 265 | 49 |
| NCC(=O)Nc1ccc(-n2nc(C(F)(F)F)cc2-c2ccc3c(ccc4ccccc43)c2)cc1 + c1cc(-c2cnn3cc(-c4ccc(OCCN5CCCCC5)cc4)cnc23)ccn1 [Dorsomorphin] (first compound 1 µM, partner dose 0.4 µM) | 94.3 | 95 | 235 | 69.5 | 104 | 117 | 124 | 61.9 | 218 |
| N#Cc1c(O)c2c(-c3ccc(-c4ccccc4O)cc3)csc2[nH]c1=O + O=C1NC(=O)/C(=C/c2ccc(-c3ccc(F)cc3O)o2)S1 [AS252424] (first compound 2 µM, partner dose 1 µM) | 118 | 54.1 | 39 | 33.4 | 113 | 39.3 | 59.3 | 101 | 283 |
| CN(NC(=O)CC(=O)NN(C)C(=S)c1ccccc1)C(=S)c1ccccc1 + COc1cc2ncnc(Nc3ccc(Oc4ccccc4)cc3)c2cc1OC [SrcI1] (first compound 0.006 µM, partner dose 2 µM) | 83.1 | 177 | 77.2 | 89.7 | 178 | 92.1 | 268 | 244 | 112 |
| Oc1nc(-c2ccc(C(F)(F)F)cc2)nc2c1CSCC2 + CC(C)CCN1c2nc(Nc3cc(F)c(O)c(F)c3)ncc2N(C)C(=O)C1C [BID1870] (first compound 2 µM, partner dose 0.2 µM) | 90.1 | 162 | 37.4 | 82 | 197 | 36.4 | 63.1 | 474 | 199 |
| CCc1ccc(CCOc2ccc(CC3SC(=O)NC3=O)cc2)nc1 (configuration not stated) [pioglitazone] + COc1ccc(-c2ccc3c(N4CCOCC4)nc(N4C[C@@H](C)O[C@@H](C)C4)nc3n2)cc1CO [KU0063794] (first compound 2 µM, partner dose 0.02 µM) | 124 | 56.2 | 173 | 70.4 | 65.4 | 97.4 | 63 | 29.7 | 78.9 |
| CN(C)S(=O)(=O)c1ccc2c(c1)/C(=C/c1cc3c([nH]1)CCCC3)C(=O)N2 + O=c1cc(-c2cccc3c2Sc2ccccc2S3)oc(N2CCOCC2)c1 [KU55933] (first compound 0.4 µM, partner dose 1 µM) | 115 | 155 | 40.3 | 28.6 | 196 | 7.95 | 170 | 178 | 190 |
| O=C(O)c1ccc(-c2c[nH]c3ncc(-c4ccccc4)cc23)cc1C1CCCC1 + COc1cc(N2CCC(N3CCN(C)CC3)CC2)ccc1Nc1ncc(Cl)c(Nc2ccccc2S(=O)(=O)C(C)C)n1 [NVP-TAE684] (first compound 0.16 µM, partner dose 0.08 µM) | 131 | 84.5 | 101 | 70.4 | 138 | 29.7 | 34.5 | 108 | 191 |
| COc1cc2c(Oc3ccc4[nH]c(C)cc4c3F)ncnc2cc1OCCCN1CCCC1 [cediranib] + CC(C)CCN1c2nc(Nc3cc(F)c(O)c(F)c3)ncc2N(C)C(=O)C1C [BID1870] (first compound 0.4 µM, partner dose 0.2 µM) | 113 | 121 | 74.4 | 55.4 | 193 | 26.9 | 82.7 | 249 | 45 |
| O=C(O)c1ccc(-c2c[nH]c3ncc(-c4ccccc4)cc23)cc1C1CCCC1 + N#Cc1c(O)c2c(-c3ccc(-c4ccccc4O)cc3)csc2[nH]c1=O [A769662] (first compound 0.16 µM, partner dose 2 µM) | 129 | 36.9 | 45.5 | 56 | 151 | 97.6 | 49.1 | 134 | 124 |
| O=C(Nc1ccccc1)c1cc([N+](=O)[O-])ccc1Cl + Cn1cc(/C=C2\C(=O)Nc3cccnc32)c2ccccc21 [GW441756] (first compound 2 µM, partner dose 0.4 µM) | 73.1 | 52.4 | 92.6 | 112 | 86.9 | 48.7 | 36.8 | 61.2 | 496 |
| O=C(O)C(=O)Nc1sc2c(c1C(=O)O)CCNC2 + CC(C)CCN1c2nc(Nc3cc(F)c(O)c(F)c3)ncc2N(C)C(=O)C1C [BID1870] (first compound 1.66667 µM, partner dose 0.2 µM) | 35.6 | 28.3 | 124 | 125 | 78.5 | 64 | 31.8 | 100 | 45.8 |
| CN(C)S(=O)(=O)c1ccc2c(c1)/C(=C/c1cc3c([nH]1)CCCC3)C(=O)N2 + Oc1nc(-c2ccc(C(F)(F)F)cc2)nc2c1CSCC2 [XAV939] (first compound 0.4 µM, partner dose 2 µM) | 227 | 68.9 | 260 | 70.5 | 94.4 | 83.9 | 61.9 | 103 | 35.8 |
| O=S(=O)(c1ccccc1)N(CC(F)(F)F)c1ccc(C(O)(C(F)(F)F)C(F)(F)F)cc1 + O=c1cc(-c2cccc3c2Sc2ccccc2S3)oc(N2CCOCC2)c1 [KU55933] (first compound 1.4 µM, partner dose 1 µM) | 112 | 56.6 | 86.5 | 80.1 | 124 | 21.3 | 99.5 | 93.3 | 166 |
| Cc1cc([N+](=O)[O-])ccc1NS(=O)(=O)c1cc(Cl)ccc1Cl + CCCCCCCCCCCC1=C(O)C(=O)C=C(O)C1=O [Embelin] (first compound 1 µM, partner dose 1.2 µM) | 96.6 | 76.6 | 70.6 | 53.5 | 71.8 | 197 | 43.9 | 200 | 83.8 |
| COC(=O)c1sccc1S(=O)(=O)Nc1ccc(Nc2ccccc2)cc1OC + COc1ccc2c(c1)CCC1C2CCC2(C)C(NCCCCCCN3C(=O)C=CC3=O)CCC12 [U73122] (first compound 1 µM, partner dose 0.4 µM) | 127 | 287 | 86.7 | 42.9 | 147 | 54.2 | 254 | 109 | 38.1 |
| COc1cc2ncnc(Nc3ccc(Oc4ccccc4)cc3)c2cc1OC + O=C(O)C(=O)Nc1sc2c(c1C(=O)O)CCNC2 [TCS401] (first compound 2 µM, partner dose 1.66667 µM) | 110 | 47 | 31.1 | 17.5 | 182 | 19.6 | 32.5 | 42 | 57 |

Not a retest: an excerpt of the list.

| Compound | cleaved PARP positive nuclei fraction [1] [%] | cleaved PARP positive nuclei fraction [2] [%] | cleaved PARP positive nuclei fraction [3] [%] | cleaved PARP positive nuclei fraction [4] [%] | cleaved PARP positive nuclei fraction [5] [%] | cleaved PARP positive nuclei fraction [6] [%] | cleaved PARP positive nuclei fraction [7] [%] | cleaved PARP positive nuclei fraction [8] [%] | cleaved PARP positive nuclei fraction [9] [%] |
| --- | --- | --- | --- | --- | --- | --- | --- | --- | --- |
| O=C(Nc1ccccc1)c1cc([N+](=O)[O-])ccc1Cl + Cn1cc(/C=C2\C(=O)Nc3cccnc32)c2ccccc21 [GW441756] (first compound 2 µM, partner dose 0.4 µM) | 73.1 | 52.4 | 92.6 | 112 | 86.9 | 48.7 | 36.8 | 61.2 | 496 |
| O=C(O)C(=O)Nc1sc2c(c1C(=O)O)CCNC2 + CC(C)CCN1c2nc(Nc3cc(F)c(O)c(F)c3)ncc2N(C)C(=O)C1C [BID1870] (first compound 1.66667 µM, partner dose 0.2 µM) | 35.6 | 28.3 | 124 | 125 | 78.5 | 64 | 31.8 | 100 | 45.8 |
